Reference: the supplement of paper PMC4604168 (melanoma cell lines)
This is one part of the list. Many values rest on one well or one pass, so single values are uncertain.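 The apoptosis fraction was the count of cleaved-PARP antibody-stained nuclei relative to all DNA-stained nuclei, imaged in 1,536-well plates. Screening doses were set so most cells survived, and baseline and induced cleaved-PARP levels vary greatly across cell lines.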

Key:
Test in all cases: cleaved PARP positive nuclei fraction relative to DMSO control; melanoma cells; higher = more apoptosis
Conditions in all cases: library dose: low library concentration; 72 h
MeWo = test system: MeWo
RPMI7951 = test system: RPMI7951
RVH-421 = test system: RVH-421
SkMel28 = test system: SkMel28
SkMel30 = test system: SkMel30
SkMel5 = test system: SkMel5
UACC257 = test system: UACC257
UACC62 = test system: UACC62

SMILES: N.N.[Cl][Pt][Cl] [cisplatin] + NCC(=O)Nc1ccc(-n2nc(C(F)(F)F)cc2-c2ccc3c(ccc4ccccc43)c2)cc1 [OSU03012] (first compound 1.6 µM, partner dose 1 µM)
- cleaved PARP positive nuclei fraction (MeWo): 42.6%
- cleaved PARP positive nuclei fraction (RPMI7951): 67.7%
- cleaved PARP positive nuclei fraction (RVH-421): 73.7%
- cleaved PARP positive nuclei fraction (SkMel28): 183%
- cleaved PARP positive nuclei fraction (SkMel30): 49.8%
- cleaved PARP positive nuclei fraction (SkMel5): 72.8%
- cleaved PARP positive nuclei fraction (UACC257): 73.6%
- cleaved PARP positive nuclei fraction (UACC62): 111%

SMILES: C[C@@H]1CCN(C(=O)CC#N)C[C@@H]1N(C)c1ncnc2[nH]ccc12 + O=C(Oc1ccc([N+](=O)[O-])cc1)N1CCC(C(O)(c2ccc3c(c2)OCO3)c2ccc3c(c2)OCO3)CC1 [JZL184] (first compound 1 µM, partner dose 1 µM)
- cleaved PARP positive nuclei fraction (MeWo): 99%
- cleaved PARP positive nuclei fraction (RPMI7951): 40.6%
- cleaved PARP positive nuclei fraction (RVH-421): 98.7%
- cleaved PARP positive nuclei fraction (SkMel28): 64.3%
- cleaved PARP positive nuclei fraction (SkMel30): 28.7%
- cleaved PARP positive nuclei fraction (SkMel5): 80.7%
- cleaved PARP positive nuclei fraction (UACC257): 131%
- cleaved PARP positive nuclei fraction (UACC62): 89.7%

SMILES: C[As](C)SC[C@H](NC(=O)CC[C@H](N)C(=O)O)C(=O)NCC(=O)O [Darinaparsin] + COc1cc(N2CCC(N3CCN(C)CC3)CC2)ccc1Nc1ncc(Cl)c(Nc2ccccc2S(=O)(=O)C(C)C)n1 [NVP-TAE684] (first compound 0.4 µM, partner dose 0.08 µM)
- cleaved PARP positive nuclei fraction (MeWo): 67.2%
- cleaved PARP positive nuclei fraction (RPMI7951): 133%
- cleaved PARP positive nuclei fraction (RVH-421): 80.1%
- cleaved PARP positive nuclei fraction (SkMel28): 74.1%
- cleaved PARP positive nuclei fraction (SkMel30): 54.7%
- cleaved PARP positive nuclei fraction (SkMel5): 31.2%
- cleaved PARP positive nuclei fraction (UACC257): 144%
- cleaved PARP positive nuclei fraction (UACC62): 38.4%

SMILES: C[As](C)SC[C@H](NC(=O)CC[C@H](N)C(=O)O)C(=O)NCC(=O)O [Darinaparsin] + Cn1cc(/C=C2\C(=O)Nc3cccnc32)c2ccccc21 [GW441756] (first compound 0.4 µM, partner dose 0.4 µM)
- cleaved PARP positive nuclei fraction (MeWo): 187%
- cleaved PARP positive nuclei fraction (RPMI7951): 166%
- cleaved PARP positive nuclei fraction (RVH-421): 94.8%
- cleaved PARP positive nuclei fraction (SkMel28): 114%
- cleaved PARP positive nuclei fraction (SkMel30): 72.9%
- cleaved PARP positive nuclei fraction (SkMel5): 145%
- cleaved PARP positive nuclei fraction (UACC257): 209%
- cleaved PARP positive nuclei fraction (UACC62): 162%

SMILES: Cn1c(Nc2ccc(C(F)(F)F)cc2)nc2cc(Oc3ccnc(-c4ncc(C(F)(F)F)[nH]4)c3)ccc21 + O=C(Oc1ccc([N+](=O)[O-])cc1)N1CCC(C(O)(c2ccc3c(c2)OCO3)c2ccc3c(c2)OCO3)CC1 [JZL184] (first compound 0.08 µM, partner dose 1 µM)
- cleaved PARP positive nuclei fraction (MeWo): 153%
- cleaved PARP positive nuclei fraction (RPMI7951): 132%
- cleaved PARP positive nuclei fraction (RVH-421): 59.7%
- cleaved PARP positive nuclei fraction (SkMel28): 266%
- cleaved PARP positive nuclei fraction (SkMel30): 28.9%
- cleaved PARP positive nuclei fraction (SkMel5): 81.2%
- cleaved PARP positive nuclei fraction (UACC257): 1340%
- cleaved PARP positive nuclei fraction (UACC62): 523%

SMILES: Cn1c(=O)n(-c2ccc(C(C)(C)C#N)cc2)c2c3cc(-c4cnc5ccccc5c4)ccc3ncc21 + N.N.[Cl][Pt][Cl] [cisplatin] (first compound 0.004 µM, partner dose 1.6 µM)
- cleaved PARP positive nuclei fraction (MeWo): 65%
- cleaved PARP positive nuclei fraction (RPMI7951): 103%
- cleaved PARP positive nuclei fraction (RVH-421): 113%
- cleaved PARP positive nuclei fraction (SkMel28): 191%
- cleaved PARP positive nuclei fraction (SkMel30): 51.4%
- cleaved PARP positive nuclei fraction (UACC62): 150%

SMILES: O=C(O)C(=O)Nc1sc2c(c1C(=O)O)CCNC2 + C/C(O)=C(\C#N)C(=O)Nc1cc(Br)ccc1Br [LFM-A13] (first compound 1.66667 µM, partner dose 2 µM)
- cleaved PARP positive nuclei fraction (MeWo): 107%
- cleaved PARP positive nuclei fraction (RPMI7951): 44%
- cleaved PARP positive nuclei fraction (RVH-421): 57.2%
- cleaved PARP positive nuclei fraction (SkMel28): 166%
- cleaved PARP positive nuclei fraction (SkMel30): 32.3%
- cleaved PARP positive nuclei fraction (SkMel5): 112%
- cleaved PARP positive nuclei fraction (UACC257): 182%
- cleaved PARP positive nuclei fraction (UACC62): 105%

SMILES: CO[C@H]1C[C@@H]2CC[C@@H](C)[C@@](O)(O2)C(=O)C(=O)N2CCCC[C@H]2C(=O)O[C@H]([C@H](C)C[C@@H]2CC[C@@H](OCCO)[C@H](OC)C2)CC(=O)[C@H](C)/C=C(\C)[C@@H](O)[C@@H](OC)C(=O)[C@H](C)C[C@H](C)/C=C/C=C/C=C/1C [everolimus] + O=C(Oc1ccc([N+](=O)[O-])cc1)N1CCC(C(O)(c2ccc3c(c2)OCO3)c2ccc3c(c2)OCO3)CC1 [JZL184] (first compound 0.02 µM, partner dose 1 µM)
- cleaved PARP positive nuclei fraction (MeWo): 118%
- cleaved PARP positive nuclei fraction (RPMI7951): 120%
- cleaved PARP positive nuclei fraction (RVH-421): 123%
- cleaved PARP positive nuclei fraction (SkMel28): 576%
- cleaved PARP positive nuclei fraction (SkMel30): 39.6%
- cleaved PARP positive nuclei fraction (SkMel5): 86%
- cleaved PARP positive nuclei fraction (UACC257): 409%
- cleaved PARP positive nuclei fraction (UACC62): 389%

SMILES: CC(=O)O[C@@]12CO[C@@H]1C[C@H](O)[C@@]1(C)C(=O)[C@H](O)C3=C(C)[C@@H](OC(=O)[C@H](O)[C@@H](NC(=O)OC(C)(C)C)c4ccccc4)C[C@@](O)([C@@H](OC(=O)c4ccccc4)[C@H]21)C3(C)C [Docetaxel] + C[As](C)SC[C@H](NC(=O)CC[C@H](N)C(=O)O)C(=O)NCC(=O)O [Darinaparsin] (first compound 0.0001 µM, partner dose 0.4 µM)
- cleaved PARP positive nuclei fraction (MeWo): 875%
- cleaved PARP positive nuclei fraction (RPMI7951): 234%
- cleaved PARP positive nuclei fraction (RVH-421): 460%
- cleaved PARP positive nuclei fraction (SkMel28): 194%
- cleaved PARP positive nuclei fraction (SkMel30): 629%
- cleaved PARP positive nuclei fraction (UACC62): 375%

SMILES: Cn1cc(C2=C(c3cn(C4CCN(Cc5ccccn5)CC4)c4ccccc34)C(=O)NC2=O)c2ccccc21 [Enzastaurin] + N.N.[Cl][Pt][Cl] [cisplatin] (first compound 0.8 µM, partner dose 1.6 µM)
- cleaved PARP positive nuclei fraction (MeWo): 57.6%
- cleaved PARP positive nuclei fraction (RPMI7951): 153%
- cleaved PARP positive nuclei fraction (RVH-421): 118%
- cleaved PARP positive nuclei fraction (SkMel28): 74.2%
- cleaved PARP positive nuclei fraction (SkMel30): 70.5%
- cleaved PARP positive nuclei fraction (UACC62): 175%

SMILES: C[As](C)SC[C@H](NC(=O)CC[C@H](N)C(=O)O)C(=O)NCC(=O)O [Darinaparsin] + O=C(Oc1ccc([N+](=O)[O-])cc1)N1CCC(C(O)(c2ccc3c(c2)OCO3)c2ccc3c(c2)OCO3)CC1 [JZL184] (first compound 0.4 µM, partner dose 1 µM)
- cleaved PARP positive nuclei fraction (MeWo): 129%
- cleaved PARP positive nuclei fraction (RPMI7951): 66.9%
- cleaved PARP positive nuclei fraction (RVH-421): 95.6%
- cleaved PARP positive nuclei fraction (SkMel28): 163%
- cleaved PARP positive nuclei fraction (SkMel30): 116%
- cleaved PARP positive nuclei fraction (SkMel5): 66%
- cleaved PARP positive nuclei fraction (UACC257): 151%
- cleaved PARP positive nuclei fraction (UACC62): 156%

SMILES: C[C@]12O[C@H](C[C@]1(O)CO)n1c3ccccc3c3c4c(c5c6ccccc6n2c5c31)CNC4=O [Lestaurtinib] + Cc1nc(Nc2ncc(C(=O)Nc3c(C)cccc3Cl)s2)cc(N2CCN(CCO)CC2)n1 [dasatanib] (first compound 0.004 µM, partner dose 0.004 µM)
- cleaved PARP positive nuclei fraction (MeWo): 92.2%
- cleaved PARP positive nuclei fraction (RPMI7951): 233%
- cleaved PARP positive nuclei fraction (RVH-421): 90.2%
- cleaved PARP positive nuclei fraction (SkMel28): 40.8%
- cleaved PARP positive nuclei fraction (SkMel30): 75.8%
- cleaved PARP positive nuclei fraction (UACC62): 49.8%

SMILES: C#Cc1cccc(Nc2ncnc3cc(OCCOC)c(OCCOC)cc23)c1 [erlotinib] + Cc1cc(SCc2sc(-c3ccc(C(F)(F)F)c(F)c3)nc2C)ccc1OCC(=O)O [GW0742] (first compound 0.8 µM, partner dose 2 µM)
- cleaved PARP positive nuclei fraction (MeWo): 107%
- cleaved PARP positive nuclei fraction (RPMI7951): 87.5%
- cleaved PARP positive nuclei fraction (RVH-421): 102%
- cleaved PARP positive nuclei fraction (SkMel28): 202%
- cleaved PARP positive nuclei fraction (SkMel30): 25.5%
- cleaved PARP positive nuclei fraction (SkMel5): 57.6%
- cleaved PARP positive nuclei fraction (UACC257): 89.8%
- cleaved PARP positive nuclei fraction (UACC62): 155%

SMILES: C[As](C)SC[C@H](NC(=O)CC[C@H](N)C(=O)O)C(=O)NCC(=O)O [Darinaparsin] + COc1ccc(Cl)c(Nc2nc3ccccc3nc2NS(=O)(=O)c2cccc(NC(=O)C(C)(C)N)c2)c1 [XL147] (first compound 0.4 µM, partner dose 0.8 µM)
- cleaved PARP positive nuclei fraction (MeWo): 58%
- cleaved PARP positive nuclei fraction (RPMI7951): 45.6%
- cleaved PARP positive nuclei fraction (RVH-421): 166%
- cleaved PARP positive nuclei fraction (SkMel28): 75.1%
- cleaved PARP positive nuclei fraction (SkMel30): 16.7%
- cleaved PARP positive nuclei fraction (UACC62): 92%

SMILES: O=c1[nH]nc(Sc2ncc([N+](=O)[O-])s2)n1-c1ccc2c(c1)OCCO2 + C[C@]12O[C@H](C[C@]1(O)CO)n1c3ccccc3c3c4c(c5c6ccccc6n2c5c31)CNC4=O [Lestaurtinib] (first compound 0.2 µM, partner dose 0.004 µM)
- cleaved PARP positive nuclei fraction (MeWo): 110%
- cleaved PARP positive nuclei fraction (RPMI7951): 137%
- cleaved PARP positive nuclei fraction (RVH-421): 45.9%
- cleaved PARP positive nuclei fraction (SkMel28): 18.6%
- cleaved PARP positive nuclei fraction (SkMel30): 111%
- cleaved PARP positive nuclei fraction (UACC62): 102%

SMILES: Cn1cc(C2=C(c3cn(C4CCN(Cc5ccccn5)CC4)c4ccccc34)C(=O)NC2=O)c2ccccc21 [Enzastaurin] + C[C@@H](Oc1cc(-c2cnn(C3CCNCC3)c2)cnc1N)c1c(Cl)ccc(F)c1Cl [Crizotinib] (first compound 0.8 µM, partner dose 0.2 µM)
- cleaved PARP positive nuclei fraction (MeWo): 94.2%
- cleaved PARP positive nuclei fraction (RPMI7951): 109%
- cleaved PARP positive nuclei fraction (RVH-421): 132%
- cleaved PARP positive nuclei fraction (SkMel28): 41.4%
- cleaved PARP positive nuclei fraction (SkMel30): 41.6%
- cleaved PARP positive nuclei fraction (UACC62): 56.7%

SMILES: C[As](C)SC[C@H](NC(=O)CC[C@H](N)C(=O)O)C(=O)NCC(=O)O [Darinaparsin] + Oc1cc(-c2nc(-c3ccccc3)[nH]c2-c2ccncc2)ccc1Cl [L779450] (first compound 0.4 µM, partner dose 0.2 µM)
- cleaved PARP positive nuclei fraction (MeWo): 107%
- cleaved PARP positive nuclei fraction (RPMI7951): 123%
- cleaved PARP positive nuclei fraction (RVH-421): 93.5%
- cleaved PARP positive nuclei fraction (SkMel28): 141%
- cleaved PARP positive nuclei fraction (SkMel30): 29.2%
- cleaved PARP positive nuclei fraction (SkMel5): 29.4%
- cleaved PARP positive nuclei fraction (UACC257): 91.9%
- cleaved PARP positive nuclei fraction (UACC62): 127%
